In publication PMC4813464:
These are yes or no findings as the source states them, for the method shown. Some results given as binding are weak or reduced against the parent protein; the word gives no strength.

Sequences of proteins named here, by UniProt entry; tags and fusion partners are left off. Residues count along the entry.
UniProt P04258: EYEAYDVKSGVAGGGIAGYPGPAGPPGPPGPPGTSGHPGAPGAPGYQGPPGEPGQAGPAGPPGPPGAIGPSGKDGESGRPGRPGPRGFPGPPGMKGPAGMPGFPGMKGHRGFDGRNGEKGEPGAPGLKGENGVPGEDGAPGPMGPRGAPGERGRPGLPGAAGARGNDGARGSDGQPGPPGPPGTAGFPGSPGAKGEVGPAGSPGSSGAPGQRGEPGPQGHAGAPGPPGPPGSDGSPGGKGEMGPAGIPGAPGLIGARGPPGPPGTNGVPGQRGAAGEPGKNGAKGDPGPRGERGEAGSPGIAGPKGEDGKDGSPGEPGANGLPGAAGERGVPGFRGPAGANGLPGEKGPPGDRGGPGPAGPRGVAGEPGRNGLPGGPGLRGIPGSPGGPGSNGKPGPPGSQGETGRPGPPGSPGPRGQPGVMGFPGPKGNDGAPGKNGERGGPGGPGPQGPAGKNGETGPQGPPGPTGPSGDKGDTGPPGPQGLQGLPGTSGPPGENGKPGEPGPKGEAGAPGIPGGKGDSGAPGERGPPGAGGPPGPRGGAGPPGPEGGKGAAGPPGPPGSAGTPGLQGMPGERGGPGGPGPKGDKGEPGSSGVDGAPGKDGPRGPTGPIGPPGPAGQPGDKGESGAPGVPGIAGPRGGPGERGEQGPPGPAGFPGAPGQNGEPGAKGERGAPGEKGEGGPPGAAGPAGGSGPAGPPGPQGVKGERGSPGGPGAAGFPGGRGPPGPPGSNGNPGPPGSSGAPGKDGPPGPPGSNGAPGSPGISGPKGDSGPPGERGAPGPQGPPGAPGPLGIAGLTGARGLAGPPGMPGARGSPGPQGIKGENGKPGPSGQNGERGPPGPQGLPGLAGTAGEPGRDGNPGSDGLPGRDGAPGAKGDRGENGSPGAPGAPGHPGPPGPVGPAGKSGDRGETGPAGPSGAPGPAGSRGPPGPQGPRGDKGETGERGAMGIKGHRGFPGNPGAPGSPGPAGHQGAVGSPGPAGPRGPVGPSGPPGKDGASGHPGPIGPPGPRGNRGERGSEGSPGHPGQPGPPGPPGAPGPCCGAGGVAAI
UniProt P04275, residues 764-2813: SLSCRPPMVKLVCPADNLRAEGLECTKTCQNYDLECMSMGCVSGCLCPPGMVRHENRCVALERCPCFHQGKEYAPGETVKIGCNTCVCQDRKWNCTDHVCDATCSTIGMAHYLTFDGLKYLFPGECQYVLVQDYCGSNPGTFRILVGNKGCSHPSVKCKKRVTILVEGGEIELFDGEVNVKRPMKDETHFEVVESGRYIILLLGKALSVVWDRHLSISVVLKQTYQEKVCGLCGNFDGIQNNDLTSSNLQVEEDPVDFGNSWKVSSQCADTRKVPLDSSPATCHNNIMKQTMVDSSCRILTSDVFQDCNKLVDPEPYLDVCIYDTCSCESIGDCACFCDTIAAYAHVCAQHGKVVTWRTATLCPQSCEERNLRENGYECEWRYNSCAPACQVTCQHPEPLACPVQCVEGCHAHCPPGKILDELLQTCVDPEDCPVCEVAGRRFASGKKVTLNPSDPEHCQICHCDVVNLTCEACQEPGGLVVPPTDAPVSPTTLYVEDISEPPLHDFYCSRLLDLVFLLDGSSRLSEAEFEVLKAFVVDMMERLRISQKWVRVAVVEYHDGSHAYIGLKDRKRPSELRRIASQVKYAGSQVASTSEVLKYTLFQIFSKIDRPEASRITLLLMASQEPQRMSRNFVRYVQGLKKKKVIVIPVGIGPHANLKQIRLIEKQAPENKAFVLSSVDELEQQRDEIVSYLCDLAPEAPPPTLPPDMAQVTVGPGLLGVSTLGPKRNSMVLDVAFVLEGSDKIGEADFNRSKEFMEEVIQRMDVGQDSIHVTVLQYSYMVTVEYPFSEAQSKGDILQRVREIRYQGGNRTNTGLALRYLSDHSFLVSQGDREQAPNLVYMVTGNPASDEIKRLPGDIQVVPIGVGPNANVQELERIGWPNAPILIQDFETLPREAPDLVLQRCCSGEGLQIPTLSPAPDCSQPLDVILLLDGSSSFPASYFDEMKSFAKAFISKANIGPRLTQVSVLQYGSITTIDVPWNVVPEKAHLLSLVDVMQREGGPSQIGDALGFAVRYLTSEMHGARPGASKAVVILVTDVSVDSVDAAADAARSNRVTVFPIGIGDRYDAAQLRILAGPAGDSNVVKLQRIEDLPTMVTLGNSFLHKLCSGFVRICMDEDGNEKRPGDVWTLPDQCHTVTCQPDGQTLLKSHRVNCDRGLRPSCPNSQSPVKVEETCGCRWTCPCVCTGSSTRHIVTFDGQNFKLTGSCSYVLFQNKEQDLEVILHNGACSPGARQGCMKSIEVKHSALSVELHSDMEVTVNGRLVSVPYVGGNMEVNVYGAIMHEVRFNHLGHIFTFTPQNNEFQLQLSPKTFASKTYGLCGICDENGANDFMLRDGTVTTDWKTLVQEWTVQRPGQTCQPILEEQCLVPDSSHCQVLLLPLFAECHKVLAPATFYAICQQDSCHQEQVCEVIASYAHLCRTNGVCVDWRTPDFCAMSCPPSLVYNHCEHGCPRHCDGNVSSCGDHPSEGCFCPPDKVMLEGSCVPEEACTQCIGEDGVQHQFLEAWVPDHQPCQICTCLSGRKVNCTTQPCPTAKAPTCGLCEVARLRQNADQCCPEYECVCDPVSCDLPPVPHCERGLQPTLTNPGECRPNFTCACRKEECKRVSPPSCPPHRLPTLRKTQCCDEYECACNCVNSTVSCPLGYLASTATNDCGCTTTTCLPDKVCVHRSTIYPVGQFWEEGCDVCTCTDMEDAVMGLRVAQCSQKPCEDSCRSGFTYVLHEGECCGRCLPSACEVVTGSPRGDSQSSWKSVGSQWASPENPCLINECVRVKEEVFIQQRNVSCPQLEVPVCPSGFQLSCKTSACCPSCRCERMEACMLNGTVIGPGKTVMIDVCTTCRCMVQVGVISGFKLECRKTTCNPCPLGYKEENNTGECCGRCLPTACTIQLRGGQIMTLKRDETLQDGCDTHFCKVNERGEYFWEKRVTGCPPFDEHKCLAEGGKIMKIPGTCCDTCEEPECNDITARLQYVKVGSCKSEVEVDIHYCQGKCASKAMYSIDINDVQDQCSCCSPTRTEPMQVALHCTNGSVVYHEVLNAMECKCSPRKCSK
UniProt Q08345, residues 21-417: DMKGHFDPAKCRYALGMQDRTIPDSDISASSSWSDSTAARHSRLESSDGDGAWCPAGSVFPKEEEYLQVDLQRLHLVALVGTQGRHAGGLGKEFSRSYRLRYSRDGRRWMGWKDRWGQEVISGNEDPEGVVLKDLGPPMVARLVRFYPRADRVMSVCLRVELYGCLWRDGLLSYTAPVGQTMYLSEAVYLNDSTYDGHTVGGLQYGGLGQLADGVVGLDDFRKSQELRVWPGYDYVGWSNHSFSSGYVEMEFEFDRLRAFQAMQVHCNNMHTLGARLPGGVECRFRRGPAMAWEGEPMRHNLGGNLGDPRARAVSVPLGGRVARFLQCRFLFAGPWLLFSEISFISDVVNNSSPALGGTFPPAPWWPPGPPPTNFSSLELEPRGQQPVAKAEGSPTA

Key:
[1] = target: Collagen type III, pepsin-extracted from bovine skin (bovine) (UniProt P04258); assay: condition: only collagen type III denatured (90 °C, 30 min) before coating; ELISA; as a3, but the collagen samples were denatured (90 °C water bath, 30 min) before coating; both purified
[2] = target: Triple-helical peptide GPC(GPP)5-…O-(GPP)5GPC-NH2 (human); assay: ELISA; solid-phase binding assay: triple-helical peptides coated at 10 μg/ml on 96-well plates; DDR1-Fc or DDR2-Fc added for 3 h; anti-human Fc-HRP detection, A492; one-site fit; both purified
[3] = target: Triple-helical peptide GPC(GPP)5-GPRGQOGVMGFO-(GPP)5GPC-NH2 (human); assay: as above
[4] = target: Triple-helical peptide GPC(GPP)5-GPRGQOGVMGFP-(GPP)5GPC-NH2 (human); assay: as above
[5] = target: Collagen type III, pepsin-extracted from bovine skin (bovine) (UniProt P04258); assay: ELISA; competitive solid-phase binding assay: bovine collagen type III coated at 10 μg/ml; DDR-Fc at 3 μg/ml (43 nM) pre-incubated 1 h at room temperature with collagen samples at 0, 0.3, 1.3, 5 and 10 μM, then 3 h on the plate; anti-Fc detection, A450; both purified

von Willebrand factor (human, in Hemate P) (from UniProt P04275 764-2813)
binding [1]: no binding

DDR1-Fc (recombinant human discoidin domain receptor 1 ectodomain, Fc-tagged) (from UniProt Q08345 21-417) (Fc fusion)
binding [2]: binds
binding [3]: binds
binding [4]: binds
binding [5]: binds
